This is one part of the list.

Sequences of proteins named here, by UniProt entry; tags and fusion partners are left off.
UniProt Q0JBA9, entry or part of it: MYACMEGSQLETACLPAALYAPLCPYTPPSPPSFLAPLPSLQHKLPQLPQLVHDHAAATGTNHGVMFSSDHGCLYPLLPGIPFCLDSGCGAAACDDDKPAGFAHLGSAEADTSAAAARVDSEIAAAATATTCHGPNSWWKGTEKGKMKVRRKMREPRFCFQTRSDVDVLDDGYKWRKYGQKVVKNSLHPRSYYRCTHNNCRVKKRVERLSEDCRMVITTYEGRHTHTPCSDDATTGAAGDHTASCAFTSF

This assay concerns the target OsWRKY34 (Oryza sativa, UniProt Q0JBA9 1-250). Nature of the assay: protein-binding microarray (RPBM); PBS, 2% BSA, 51.3 ng/ul salmon testes DNA, 50 uM zinc acetate, 200 nM TF, 25 C, 1 h; high values mean tight binding. The following applies: protein: recombinant; tags: N-terminal polyhistidine and DsRed monomer fusion (pET32a); label: CyDye5-dUTP incorporated in the synthesized complementary strand; 3' TTTTT single-stranded linker to array surface; dsDNA, one strand shown. The method in brief:
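The binding signal is fluorescence intensity per array feature (arbitrary units). Readings came from an Axon 4000B scanner after a washed, 2% BSA-blocked, double-stranded custom Agilent array had been incubated for 1 h at 25 °C with 200 nM protein and 50 µM zinc acetate. The protein was a Ni–NTA-purified transcription factor fused N-terminally to polyhistidine and DsRed, expressed in E. coli BL21-CodonPlus.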
For “TTGAACATGATTTGTGGTGGGTGGAGTGATTTATGTCATTCGGAGTCACCTAGTGCAG”, the binding signal was 9940 fluorescence intensity (a.u.).
The value for “CCTCCTCACCGGCAATTAATGCCGCCAACTACCAGATCCACGGAGTCACCTAGTGCAG” was 8170 fluorescence intensity (a.u.); that for “CCTGCTGCTCCCGCGCAATCCTCTCTCGCTGCCGGTGGGGCGGAGTCACCTAGTGCAG” was 10500 fluorescence intensity (a.u.).
To “TTCTTCTCGTAAGTTAAGATATGCCGCTTCTTTGCGTTCACGGAGTCACCTAGTGCAG” belongs 8500 fluorescence intensity (a.u.); to “TGGTTTTCATTTGACATGACGTCTACGTGACGCCTACTTGCGGAGTCACCTAGTGCAG”, 8450 fluorescence intensity (a.u.); to “CCTTTGTGTCGTTTCTCTTAATTTATTTCGTGTAAACCTTCGGAGTCACCTAGTGCAG”, 10900 fluorescence intensity (a.u.).
To “GCCGCGCCGCCTCGCCCGACGTCGTAGCAACCAAGCCACCCGGAGTCACCTAGTGCAG” belongs 8680 fluorescence intensity (a.u.); to “AATACATCAATGTATTTTATGTTTTCCTCTGCATATACATCGGAGTCACCTAGTGCAG”, 8380 fluorescence intensity (a.u.); to “CGTCCTCGTTGTTCTCTCGCTCGCTCGCATGCTCCTCGCGCGGAGTCACCTAGTGCAG”, 8750 fluorescence intensity (a.u.).
Turning to “CAGCAAGAAGCTCCATTAATCCATTCCATATACTCATATACGGAGTCACCTAGTGCAG”, the binding signal was 8570 fluorescence intensity (a.u.).
Turning to “GATCCCGGGCCCGGCCCACTGGCCCAGTCAACTAATCCTCCGGAGTCACCTAGTGCAG”, the binding signal was 8080 fluorescence intensity (a.u.).
To “CGTGTGTGGCCTCCTCCTCCGTTCCGTTTCGCAGTCGTCGCGGAGTCACCTAGTGCAG” belongs 8930 fluorescence intensity (a.u.).
The value for “TCTCCGTCGACCGTGCCGCCCGTGCCACTCGATTTGTTGACGGAGTCACCTAGTGCAG” was 9460 fluorescence intensity (a.u.); that for “CTGATGCCCATATACTTACATGTTAACTAATGCATAGACACGGAGTCACCTAGTGCAG” was 9070 fluorescence intensity (a.u.).
To “CCGCAGCCACCTCACCGCGTCAATCCGCCGCCGCCACGCGCGGAGTCACCTAGTGCAG” belongs 8670 fluorescence intensity (a.u.).
With “TCCCTGGCAATGGCCCTACTACCTCCCTGTTCCCTGAAACCGGAGTCACCTAGTGCAG”, the binding signal is 9070 fluorescence intensity (a.u.).
Take “TTAGTTGTTCTTATTGAGACGAGCATCTTCGCCCCATCTTCGGAGTCACCTAGTGCAG”: the binding signal was 8550 fluorescence intensity (a.u.).
On to “CTCTCCCCAGATCCGCGCCTCGAAACATTCATCTCGTCTCCGGAGTCACCTAGTGCAG”, for which the binding signal was 8640 fluorescence intensity (a.u.).
To “CAGTGCTCCCTGCTGTCCACGCCGGCGCCGCGCCTCCCCACGGAGTCACCTAGTGCAG” belongs 8160 fluorescence intensity (a.u.); to “TCCTGTTTAAAGTTTTTTTTTGTGATTTTTAGATAAAAAACGGAGTCACCTAGTGCAG”, 9030 fluorescence intensity (a.u.).
As for “GAGGTTAGGCAAGTTTGACCATGTTAGATGAGTGTTTGGTCGGAGTCACCTAGTGCAG”, the binding signal is 9180 fluorescence intensity (a.u.).
In the case of “ACCATTATTCTGTTGTCAACTGCATGCCGCAACAAACTGACGGAGTCACCTAGTGCAG”, the binding signal was 8420 fluorescence intensity (a.u.).
The value for “TTCGCTCACCTCTCGATCGATCGACCTGCCAACATCAACACGGAGTCACCTAGTGCAG” was 10400 fluorescence intensity (a.u.).
For “CCATTGTCCCCGCCGTCCCCGCCGTCCACGCCGGCGCCGCCGGAGTCACCTAGTGCAG”, the binding signal is 10100 fluorescence intensity (a.u.).
To “CAAGCACTCAGAGGTGGGGTGGGGCCACATCGTCAGTGAACGGAGTCACCTAGTGCAG” belongs 9260 fluorescence intensity (a.u.); to “TCTTTTGCATCATTCATTTTCACCTGCATGACGACTTAAACGGAGTCACCTAGTGCAG”, 14500 fluorescence intensity (a.u.).
The value for “TCCTACAATTGATCCTTGCTTAATTATTGATAATGTTTCTCGGAGTCACCTAGTGCAG” was 8270 fluorescence intensity (a.u.).
As for “GCGCGAGAGGCGCGCGAGGCGGCGGCGGGGAGGTGGCGGCCGGAGTCACCTAGTGCAG”, the binding signal is 8780 fluorescence intensity (a.u.).
On to “CATAGCCCTCATCGCGAACCCGCAGACGCGCGCTACGACCCGGAGTCACCTAGTGCAG”, for which the binding signal was 9120 fluorescence intensity (a.u.).
The value for “CCTCGCTGCCGCCGCCGCCGCATCTGACCACCCGGCGATGCGGAGTCACCTAGTGCAG” was 9880 fluorescence intensity (a.u.); that for “CCACTACTACGCGATTGATTTTCCTAGACTCTTTGTTTCCCGGAGTCACCTAGTGCAG” was 8290 fluorescence intensity (a.u.).
To “CTCTTGCACTATAATTTCATTTGCATTCTCATATCAGCCGCGGAGTCACCTAGTGCAG” belongs 10300 fluorescence intensity (a.u.); to “GCTCCCGTCCATGGCCGCTGCTGCTCCTACCACTCACTAACGGAGTCACCTAGTGCAG”, 9320 fluorescence intensity (a.u.).
The value for “GTCACTGTGAATTTATCGATTACTCGATTTGGTTCTTGGTCGGAGTCACCTAGTGCAG” was 10300 fluorescence intensity (a.u.).
Regarding “AATTAACCTGGCAGCTGATACACGTACTCTTGCTTTGGCCCGGAGTCACCTAGTGCAG”, the binding signal was 8090 fluorescence intensity (a.u.).
To “ACATCTCATTCCTTCTCCTTTTTCTTCTCCTCACACACTACGGAGTCACCTAGTGCAG” belongs 11100 fluorescence intensity (a.u.); to “GCCTGTGTTCGCTGTTGCTAGCTCTCTCGACGAGATGACACGGAGTCACCTAGTGCAG”, 8500 fluorescence intensity (a.u.).
The value for “GAAGCAGGTGGTTTTCTTCACCCACCAACCGCCGTCTCCGCGGAGTCACCTAGTGCAG” was 9380 fluorescence intensity (a.u.); that for “CTCGCTTATTAGCTTCCCTGTACTCAGTATTAATCAGCAACGGAGTCACCTAGTGCAG” was 8520 fluorescence intensity (a.u.); that for “TAGTAGTAGACACTAAAGGCTGTGTTCTTTGCTTATCGTTCGGAGTCACCTAGTGCAG” was 9190 fluorescence intensity (a.u.).
The value for “GCATTCGTTTCAGGCTGTTCCCAACCTCTCTCCCTTGTTTCGGAGTCACCTAGTGCAG” was 12000 fluorescence intensity (a.u.); that for “TAAATTGCGTTCTGGGCCACATTTTATTATCTAAGTTTCACGGAGTCACCTAGTGCAG” was 9090 fluorescence intensity (a.u.).

Values taken from publication PMC7819943, “Rice protein-binding microarrays: a tool to detect cis-acting elements near promoter regions in rice”.
